± gives the standard deviation of the averaged measurements. Most values lie at the level of the controls, where differences are scatter.
Columns and labels:
Test in all cases: level (log10 ratio to DMSO vehicle control); higher = higher biomarker level / cell amount than vehicle control
[1] = compound: C=CC(=O)OCC(F)(F)C(F)(F)C(F)(F)COC(=O)C=C [1H,1H,5H,5H-Perfluoro-1,5-pentanediol diacrylate]; conditions: 2200 nM; in DMSO
Description: (§1)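 BioMAP Diversity Plus panel of 12 human primary cell co-culture systems (3C, 4H, LPS, SAg, BT, BF4T, BE3C, CASM3C, HDF3CGF, KF3CT, MyoF, Mphg). Compounds were added 1 h before stimulation and left for 24 h (MyoF 48 h; BT 72 h for soluble read-outs or 6 d for IgG). Biomarkers were read by ELISA, cytotoxicity by SRB, PBMC viability and proliferation by Alamar Blue. Each well value was divided by the mean of 8 DMSO control wells on the same plate and log10 transformed; duplicate blinded samples were tested at 4 concentrations.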

[2] = compound: C=CC(=O)OCCC(F)(F)C(F)(F)C(F)(F)C(F)(F)C(F)(F)C(F)(F)C(F)(F)C(F)(F)F [8:2 Fluorotelomer acrylate]; conditions: 2200 nM; in DMSO
Description: as §1

[3] = compound: C=CC(=O)OCCC(F)(F)C(F)(F)C(F)(F)C(F)(F)F [2-(Perfluorobutyl)ethyl acrylate]; conditions: 2200 nM; in DMSO
Description: as §1

[4] = compound: FC(F)(F)C(F)(C(F)(F)F)C(F)(F)C(F)(F)CC1CO1 [3-(Perfluoro-3-methylbutyl)-1,2-propenoxide]; conditions: in DMSO
Description: as §1

Perfluoro-1-iodohexane = compound: FC(F)(F)C(F)(F)C(F)(F)C(F)(F)C(F)(F)C(F)(F)I [Perfluoro-1-iodohexane]; conditions: in DMSO
Description: as §1

[5] = compound: FC(F)(I)C(F)(F)C(F)(F)C(F)(F)C(F)(F)C(F)(F)I [1,6-Diiodoperfluorohexane]; conditions: 2200 nM; in DMSO
Description: as §1

[6] = compound: O=C(Cl)C(F)(F)C(F)(F)C(F)(F)C(=O)Cl [Hexafluoroglutaryl chloride]; conditions: 2200 nM; in DMSO
Description: as §1

[7] = compound: O=C(O)C(F)(F)C(F)(F)C(F)(F)C(F)(F)C(F)(F)C(F)(F)C(F)(F)C(F)(F)C(F)(F)C(F)(F)C(F)(F)C(F)(F)C(F)(F)F [Perfluorotetradecanoic acid]; conditions: in DMSO
Description: as §1

[8] = compound: O=C(O)C=C(C(F)(F)F)C(F)(F)F [3,3-Bis(trifluoromethyl)-2-propenoic acid]; conditions: in DMSO
Description: as §1

[9] = compound: O=S(=O)(O)C(F)(F)C(F)(F)C(F)(F)C(F)(F)C(F)(F)C(F)(F)F [Perfluorohexanesulfonic acid]; conditions: 2200 nM; in DMSO
Description: as §1

[10] = compound: O=S(=O)(O)CCC(F)(F)C(F)(F)C(F)(F)C(F)(F)F [4:2 Fluorotelomer sulfonic acid]; conditions: 2200 nM; in DMSO
Description: as §1

Hexafluoroamylene glycol = compound: OCC(F)(F)C(F)(F)C(F)(F)CO [Hexafluoroamylene glycol]; conditions: 2200 nM; in DMSO
Description: as §1

[11] = compound: OCCCC(F)(F)C(F)(F)C(F)(F)C(F)(F)C(F)(F)C(F)(F)C(F)(F)F [7:3 Fluorotelomer alcohol]; conditions: 2200 nM; in DMSO
Description: as §1

BE3C:SRB
level (log10) [1]: 0.002 ± 0.0042
level (log10) [2]: 0.008 ± 0.016
level (log10) [3]: -0.002 ± 0.0014
level (log10) ([4]; 740 nM): -0.003 ± 0.0042
level (log10) ([4]; 2200 nM): -0.0045 ± 0.0035
level (log10) (Perfluoro-1-iodohexane; 2200 nM): -0.005 ± 0.0014
level (log10) (Perfluoro-1-iodohexane; 6700 nM): -0.0125 ± 0.005
level (log10) (Perfluoro-1-iodohexane; 20000 nM): 0.001 ± 0.017
level (log10) (Perfluoro-1-iodohexane; 60000 nM): 0 ± 0.013
level (log10) [5]: -0.0015 ± 0.0021
level (log10) [6]: 0.002 ± 0.0071
level (log10) ([7]; 740 nM): 0.0135 ± 0.012
level (log10) ([7]; 2200 nM): -0.0015 ± 0.0078
level (log10) ([8]; 2200 nM): 0.005 ± 0.021
level (log10) ([8]; 6700 nM): -0.005 ± 0.0042
level (log10) ([8]; 20000 nM): -0.0025 ± 0.0035
level (log10) ([8]; 60000 nM): 0.01 ± 0.0057
level (log10) [9]: 0.007 ± 0.024
level (log10) [10]: 0.011 ± 0.02
level (log10) (Hexafluoroamylene glycol): 0.011 ± 0.016
level (log10) [11]: -0.0095 ± 0.0035

BE3C:PAI-I
level (log10) [1]: 0.034 ± 0.047
level (log10) [2]: -0.0135 ± 0.047
level (log10) [3]: 0.01 ± 0.017
level (log10) ([4]; 740 nM): 0.004 ± 0.02
level (log10) ([4]; 2200 nM): -0.0015 ± 0.019
level (log10) (Perfluoro-1-iodohexane; 2200 nM): -0.0225 ± 0.046
level (log10) (Perfluoro-1-iodohexane; 6700 nM): -0.0245 ± 0.04
level (log10) (Perfluoro-1-iodohexane; 20000 nM): -0.0045 ± 0.025
level (log10) (Perfluoro-1-iodohexane; 60000 nM): 0.006 ± 0.037
level (log10) [5]: 0.03 ± 0.03
level (log10) [6]: -0.011 ± 0.031
level (log10) ([7]; 740 nM): 0.0095 ± 0.0092
level (log10) ([7]; 2200 nM): 0.0265 ± 0.026
level (log10) ([8]; 2200 nM): -0.022 ± 0.034
level (log10) ([8]; 6700 nM): -0.043 ± 0.0042
level (log10) ([8]; 20000 nM): -0.0315 ± 0.005
level (log10) ([8]; 60000 nM): -0.0085 ± 0.032
level (log10) [9]: 0.0045 ± 0.025
level (log10) [10]: 0.0105 ± 0.0078
level (log10) (Hexafluoroamylene glycol): -0.0185 ± 0.021
level (log10) [11]: -0.0635 ± 0.016

HDF3CGF:CCL2/MCP-1
level (log10) [1]: -0.245 ± 0.0085
level (log10) [2]: -0.0295 ± 0.053
level (log10) [3]: -0.0195 ± 0.018
level (log10) ([4]; 740 nM): -0.0155 ± 0.04
level (log10) ([4]; 2200 nM): -0.0365 ± 0.033
level (log10) (Perfluoro-1-iodohexane; 2200 nM): -0.023 ± 0.031
level (log10) (Perfluoro-1-iodohexane; 6700 nM): -0.0125 ± 0.013
level (log10) (Perfluoro-1-iodohexane; 20000 nM): -0.02 ± 0.0099
level (log10) (Perfluoro-1-iodohexane; 60000 nM): -0.065 ± 0.034
level (log10) [5]: -0.005 ± 0.0071
level (log10) [6]: -0.024 ± 0.037
level (log10) ([7]; 740 nM): 0.0295 ± 0.0078
level (log10) ([7]; 2200 nM): 0.018 ± 0.0042
level (log10) ([8]; 2200 nM): -0.0565 ± 0.0064
level (log10) ([8]; 6700 nM): -0.0775 ± 0.052
level (log10) ([8]; 20000 nM): -0.0935 ± 0.056
level (log10) ([8]; 60000 nM): -0.084 ± 0.028
level (log10) [9]: 0.0215 ± 0.016
level (log10) [10]: -0.003 ± 0.0071
level (log10) (Hexafluoroamylene glycol): 0.0205 ± 0.028
level (log10) [11]: -0.0065 ± 0.019

KF3CT:CCL2/MCP-1
level (log10) [1]: -0.02 ± 0.089
level (log10) [2]: -0.006 ± 0.061
level (log10) [3]: -0.0075 ± 0.029
level (log10) ([4]; 740 nM): 0.0125 ± 0.052
level (log10) ([4]; 2200 nM): 0.005 ± 0.028
level (log10) (Perfluoro-1-iodohexane; 2200 nM): 0.015 ± 0.011
level (log10) (Perfluoro-1-iodohexane; 6700 nM): 0.0225 ± 0.032
level (log10) (Perfluoro-1-iodohexane; 20000 nM): -0.015 ± 0.0014
level (log10) (Perfluoro-1-iodohexane; 60000 nM): -0.0185 ± 0.047
level (log10) [5]: 0.037 ± 0.023
level (log10) [6]: -0.0095 ± 0.022
level (log10) ([7]; 740 nM): 0.0045 ± 0.019
level (log10) ([7]; 2200 nM): -0.012 ± 0.0042
level (log10) ([8]; 2200 nM): 0.0135 ± 0.035
level (log10) ([8]; 6700 nM): -0.0055 ± 0.036
level (log10) ([8]; 20000 nM): -0.015 ± 0.014
level (log10) ([8]; 60000 nM): -0.028 ± 0.052
level (log10) [9]: 0.02 ± 0.055
level (log10) [10]: 0.0015 ± 0.04
level (log10) (Hexafluoroamylene glycol): 0.0105 ± 0.012
level (log10) [11]: 0.0025 ± 0.012

3C:CXCL8/IL-8
level (log10) [1]: 0.018 ± 0.03
level (log10) [2]: 0.0235 ± 0.061
level (log10) [3]: -0.006 ± 0.04
level (log10) ([4]; 740 nM): 0.001 ± 0.018
level (log10) ([4]; 2200 nM): -0.0095 ± 0.015
level (log10) (Perfluoro-1-iodohexane; 2200 nM): 0.0055 ± 0.012
level (log10) (Perfluoro-1-iodohexane; 6700 nM): -0.014 ± 0.064
level (log10) (Perfluoro-1-iodohexane; 20000 nM): -0.01 ± 0.065
level (log10) (Perfluoro-1-iodohexane; 60000 nM): 0.0365 ± 0.079
level (log10) [5]: 0.023 ± 0.033
level (log10) [6]: 0.033 ± 0.027
level (log10) ([7]; 740 nM): 0.0075 ± 0.037
level (log10) ([7]; 2200 nM): -0.019 ± 0.011
level (log10) ([8]; 2200 nM): 0.032 ± 0.038
level (log10) ([8]; 6700 nM): 0.038 ± 0.02
level (log10) ([8]; 20000 nM): 0.0255 ± 0.04
level (log10) ([8]; 60000 nM): 0.061 ± 0.071
level (log10) [9]: -0.0065 ± 0.018
level (log10) [10]: 0.016 ± 0.016
level (log10) (Hexafluoroamylene glycol): -0.006 ± 0.1
level (log10) [11]: 0.014 ± 0.034

SAg:CD40
level (log10) [1]: -0.0275 ± 0.052
level (log10) [2]: -0.006 ± 0.0099
level (log10) [3]: -0.0255 ± 0.0021
level (log10) ([4]; 740 nM): -0.0185 ± 0.025
level (log10) ([4]; 2200 nM): -0.021 ± 0.0085
level (log10) (Perfluoro-1-iodohexane; 2200 nM): -0.0045 ± 0.028
level (log10) (Perfluoro-1-iodohexane; 6700 nM): -0.019 ± 0.013
level (log10) (Perfluoro-1-iodohexane; 20000 nM): -0.0195 ± 0.018
level (log10) (Perfluoro-1-iodohexane; 60000 nM): 0.012 ± 0.061
level (log10) [5]: -0.0255 ± 0.032
level (log10) [6]: 0.007 ± 0.011
level (log10) ([7]; 740 nM): -0.0405 ± 0.016
level (log10) ([7]; 2200 nM): -0.0495 ± 0.021
level (log10) ([8]; 2200 nM): 0.018 ± 0.0071
level (log10) ([8]; 6700 nM): 0.0205 ± 0.005
level (log10) ([8]; 20000 nM): -0.01 ± 0.017
level (log10) ([8]; 60000 nM): -0.094 ± 0.038
level (log10) [9]: -0.003 ± 0.0057
level (log10) [10]: -0.005 ± 0.028
level (log10) (Hexafluoroamylene glycol): 0.003 ± 0.048
level (log10) [11]: -0.0215 ± 0.0078
